Article PMC3614555
No constants are given. Whether binding was seen depends on the method and setting. Binding seen in cells or lysates may run through a third protein. Some entries that bind do so weakly or less than the wild type.

Protein sequences, listed by entry. Tags and fused reporters are not part of them. Lines headed by an entry give the natural chain unless they say otherwise; changes in a name come on top.
UniProt Q00651: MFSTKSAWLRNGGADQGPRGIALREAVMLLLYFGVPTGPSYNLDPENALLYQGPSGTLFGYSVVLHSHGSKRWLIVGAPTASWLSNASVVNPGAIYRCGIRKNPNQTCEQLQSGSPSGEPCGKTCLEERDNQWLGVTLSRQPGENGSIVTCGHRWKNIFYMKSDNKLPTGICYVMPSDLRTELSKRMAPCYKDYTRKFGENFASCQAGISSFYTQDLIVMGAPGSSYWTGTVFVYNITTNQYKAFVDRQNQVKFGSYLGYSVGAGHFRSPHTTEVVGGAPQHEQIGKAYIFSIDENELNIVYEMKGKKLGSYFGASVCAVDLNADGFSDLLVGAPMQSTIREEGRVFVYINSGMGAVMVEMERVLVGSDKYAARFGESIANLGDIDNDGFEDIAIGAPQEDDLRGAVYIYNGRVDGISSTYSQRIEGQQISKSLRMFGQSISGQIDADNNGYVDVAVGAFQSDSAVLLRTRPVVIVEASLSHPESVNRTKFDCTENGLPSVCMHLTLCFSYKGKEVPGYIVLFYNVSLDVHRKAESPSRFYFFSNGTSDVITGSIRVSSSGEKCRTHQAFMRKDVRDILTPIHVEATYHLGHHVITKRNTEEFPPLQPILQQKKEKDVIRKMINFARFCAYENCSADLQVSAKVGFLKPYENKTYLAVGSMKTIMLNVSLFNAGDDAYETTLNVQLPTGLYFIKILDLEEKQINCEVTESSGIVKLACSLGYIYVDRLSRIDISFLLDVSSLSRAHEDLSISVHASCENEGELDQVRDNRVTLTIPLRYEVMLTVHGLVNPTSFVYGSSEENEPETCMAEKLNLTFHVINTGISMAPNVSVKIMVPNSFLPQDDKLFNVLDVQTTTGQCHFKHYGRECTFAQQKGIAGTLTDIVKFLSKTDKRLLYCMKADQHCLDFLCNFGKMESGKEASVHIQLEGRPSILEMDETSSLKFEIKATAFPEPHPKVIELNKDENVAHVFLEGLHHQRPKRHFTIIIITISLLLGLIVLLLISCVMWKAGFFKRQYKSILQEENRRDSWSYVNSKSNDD
UniProt P09055: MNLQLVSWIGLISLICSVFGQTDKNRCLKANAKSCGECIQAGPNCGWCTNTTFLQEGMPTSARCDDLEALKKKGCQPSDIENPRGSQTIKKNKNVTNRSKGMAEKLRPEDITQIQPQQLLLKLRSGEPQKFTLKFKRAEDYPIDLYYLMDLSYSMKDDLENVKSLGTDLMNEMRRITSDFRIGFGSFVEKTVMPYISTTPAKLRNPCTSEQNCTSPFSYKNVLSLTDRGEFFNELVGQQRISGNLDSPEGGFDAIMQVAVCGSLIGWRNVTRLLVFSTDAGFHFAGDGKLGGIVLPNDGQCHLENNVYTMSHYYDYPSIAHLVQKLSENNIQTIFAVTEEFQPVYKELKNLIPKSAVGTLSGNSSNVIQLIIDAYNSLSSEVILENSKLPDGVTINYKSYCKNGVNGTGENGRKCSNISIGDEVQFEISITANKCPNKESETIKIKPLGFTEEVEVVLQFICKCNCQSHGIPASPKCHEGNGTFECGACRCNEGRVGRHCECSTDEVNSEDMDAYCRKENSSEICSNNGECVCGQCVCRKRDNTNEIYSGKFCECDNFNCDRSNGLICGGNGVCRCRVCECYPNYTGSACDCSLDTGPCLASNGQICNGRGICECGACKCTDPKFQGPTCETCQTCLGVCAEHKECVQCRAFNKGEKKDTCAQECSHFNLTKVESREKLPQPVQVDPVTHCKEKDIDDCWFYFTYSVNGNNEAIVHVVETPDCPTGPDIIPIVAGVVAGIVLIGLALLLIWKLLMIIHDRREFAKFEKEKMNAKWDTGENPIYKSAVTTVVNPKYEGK
UniProt Q8VI36: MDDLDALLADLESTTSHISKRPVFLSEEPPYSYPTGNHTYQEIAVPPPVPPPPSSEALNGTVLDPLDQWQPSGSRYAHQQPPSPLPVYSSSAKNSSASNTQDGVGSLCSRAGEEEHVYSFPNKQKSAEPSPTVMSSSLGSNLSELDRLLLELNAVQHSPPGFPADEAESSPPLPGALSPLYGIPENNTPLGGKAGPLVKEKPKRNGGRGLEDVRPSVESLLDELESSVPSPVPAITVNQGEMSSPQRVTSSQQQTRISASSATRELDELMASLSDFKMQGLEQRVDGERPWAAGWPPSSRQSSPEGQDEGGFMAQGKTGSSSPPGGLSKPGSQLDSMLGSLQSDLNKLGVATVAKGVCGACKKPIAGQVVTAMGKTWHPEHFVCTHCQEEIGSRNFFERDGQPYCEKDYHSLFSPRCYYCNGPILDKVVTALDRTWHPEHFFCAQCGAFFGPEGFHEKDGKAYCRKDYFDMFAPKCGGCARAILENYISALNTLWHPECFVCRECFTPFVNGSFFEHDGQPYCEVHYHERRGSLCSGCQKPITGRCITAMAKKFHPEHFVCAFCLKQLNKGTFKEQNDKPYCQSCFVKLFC

Experiments:
[1] = target: T1, integrin α4β1 (mouse (endogenous in bone marrow derived cells)) (UniProt Q00651+P09055); experiment: co-IP; integrin α4β1 immunoprecipitated from p110γ−/− bone marrow derived cells with (+) or without (−) SDF-1α stimulation; immunoblotted for the integrin α4 subunit, talin and paxillin
[2] = target: integrin α4β1 from α4Y991A mice (mouse (endogenous in bone marrow derived cells)) (UniProt Q00651+P09055); experiment: co-IP; integrin α4β1 immunoprecipitated from bone marrow derived cells with (+) or without (−) SDF-1α stimulation; immunoblotted for the integrin α4 subunit, talin and paxillin
[3] = target: T1, integrin α4β1 (mouse (endogenous in bone marrow derived cells)); experiment: as above

binding [2]: no binding | binding [3]: binds
Substance: paxillin (from UniProt Q8VI36 1-591)
binding [1]: no binding (condition: in p110γ−/− myeloid cells)
